# From patent US20260217667A1, “AMYLOID TARGETING AGENTS” (Amydis, Inc., priority 2023, published 2026)
# Some of these results come from one statement about several compounds together.
# Tested on: Tau
# Assay: In vivo live retinal imaging in 3R Tau transgenic mice after IV injection
# Conditions: 3R Tau mouse, 15 mg/kg IV
structure (smiles),measurement,value
"N#C/C(=C\c1ccc2cc(N3CCCCC3)ccc2c1)C(=O)CCCOCCOCCO [Compound 1, (E)-6-(2-(2-hydroxyethoxy)ethoxy)-3-oxo-2-((6-(piperidin-1-yl)naphthalen-2-yl)methylene)hexanenitrile]",Time after tail vein injection at which compound was observed in the retinal vasculature,1 to 2 min
"N#C/C(=C\c1ccc2cc(N3CCCCC3)ccc2c1)C(=O)CCC(O)CO (centres unmarked) [Compound 1a, (E)-6,7-dihydroxy-3-oxo-2-((6-(piperidin-1-yl)naphthalen-2-yl)methylene)heptanenitrile]",Time after tail vein injection at which compound was observed in the retinal vasculature,1 to 2 min
